In patent US10679730B2, “Prognostic and predictive breast cancer signature” (The University of Chicago, priority 2013, dated 2020):
“Also recorded” adds a separate entry of the source. At least one structure is not confirmed: it was looked up by name or label, or the drawing left a doubt.

Assays:
[1] = tested on: HMGA2 in liver cancer cell lines; conditions: dependent on hsa-let-7b expression; cited from earlier work
1833 cells [2] = test: Cell proliferation assay (CellTiter-Blue); type: cell-based, human; conditions: 1833 cells treated with decitabine (FIG. 27D)
1833 cells [3] = test: In vitro cell invasion assay (Matrigel); type: cell-based, human; conditions: 1833 cells treated with demethylation reagent (FIG. 21D, 27B)
Experimental: (§1) Cells were subjected to 5-azacytidine (1 or 3.6 μM), decitabine (5-aza-dC; 220 or 440 nM), or mock treatment by addition into cell culture at indicated concentration. Cells were treated daily. RNA and protein were isolated respectively.
Cell proliferation assays were performed by using the CellTiter-Blues assay (Promega) as described (4). Invasion assays were performed as described (4) with modifications. Briefly, the inserts were coated with Matrigel basement membrane matrix (BD Biosciences). To assess the cell invasion ability, […] cells were seeded on top of the polymerized Matrigel in serum-free medium, and complete medium (10% FBS) was placed in the lower compartment. After 24 h, cells on the lower part of the insert were stained with BD Calcein AM Fluorescent Dye. The inserts with the invaded cells were incubated in dissociation buffer (Travigen) with gentle shaking. Fluorescence measurements were used to record data with 485 nm for excitation and 530 nm for emission.

HOXA9 in 1833 cells = test: qRT-PCR / immunoblotting for HOXA9 after demethylation treatment of 1833 cells; type: cell-based, human; conditions: 1833 cells treated with demethylation reagent; qRT-PCR / immunoblotting (FIG. 20G, 27A, 27C)
Experimental: Total RNA was isolated from cells by using miRNeasy Mini Kit (Qiagen) following the manufacturer's instructions. Quantitative RT-PCR (qRT-PCR) was performed as described (4). The qPCR primers for human or murine HMGA2, TET1, HOXA genes and GAPDH were Taqman and were purchased from Applied Biosystems.
Cells were lysed in complete lysis buffer (pH 7.5) by using Nuclear Extract Kit (Active Motif) following the manufacturer's protocols. Proteins were measured, separated, and probed as described (4). Antibodies specific for each protein were HMGA2 (61042; Active Motif), TET1 (sc-163446; Santa Cruz Biotechnologies), HOXA7 (09-086; Millipore), HOXA9 (09-178; Millipore), GAPDH (ab9484; Abcam), and Flag-M1 (F3040; Sigma).
as §1

| SMILES | HMGA2 expression [1] | cell proliferation (1833 cells [2]) | cell invasion (1833 cells [3]) | cell invasion (1833 cells [3]; listed as Decitabine) | HOXA9 expression (HOXA9 in 1833 cells) |
| --- | --- | --- | --- | --- | --- |
| Cc1[nH]c2ccccc2c1CCNCc1ccc(/C=C/C(=O)NO)cc1 [panobinostat] | down-regulate HMGA2 | – | – | – | – |
| Nc1ncn([C@H]2C[C@H](O)[C@@H](CO)O2)c(=O)n1 [decitabine] | – | suppresses cell invasion and proliferation | suppresses cell invasion and proliferation; also recorded: decreased cell invasion | decreases cell invasion | induction of HOXA9 |
